These results are taken from paper PMC9788671.

Amino acid sequences for entries named in this document (tags omitted).
UniProt Q9NZV8: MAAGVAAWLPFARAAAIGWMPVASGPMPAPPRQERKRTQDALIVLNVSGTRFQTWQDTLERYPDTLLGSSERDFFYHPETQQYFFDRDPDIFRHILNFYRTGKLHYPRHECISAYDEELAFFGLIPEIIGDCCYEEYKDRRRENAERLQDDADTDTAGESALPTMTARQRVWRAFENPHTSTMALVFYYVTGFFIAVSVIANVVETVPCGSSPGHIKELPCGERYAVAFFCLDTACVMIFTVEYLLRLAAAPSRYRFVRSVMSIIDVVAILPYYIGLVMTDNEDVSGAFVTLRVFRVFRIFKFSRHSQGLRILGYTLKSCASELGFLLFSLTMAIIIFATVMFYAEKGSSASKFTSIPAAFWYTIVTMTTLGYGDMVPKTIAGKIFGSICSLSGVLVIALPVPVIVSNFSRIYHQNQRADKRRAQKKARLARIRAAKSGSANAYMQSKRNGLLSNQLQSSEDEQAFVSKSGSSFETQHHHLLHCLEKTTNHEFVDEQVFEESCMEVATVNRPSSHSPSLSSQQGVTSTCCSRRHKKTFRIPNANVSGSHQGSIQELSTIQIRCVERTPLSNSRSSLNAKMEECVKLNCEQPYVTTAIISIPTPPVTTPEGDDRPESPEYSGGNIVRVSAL

Results are given in words; binding and its absence hold for the method and conditions named. In cells and extracts the contact can be indirect. These calls come from enrichment with a bait or labelling near it, and not all partners need be listed.

For test [1], the target named is TAP-Kv4.2 (human) (UniProt Q9NZV8). Description: affinity purification with mass spectrometry; TAP-Kv4.2 expressed by lentivirus in rat hippocampal neurons, harvested at DIV14; weak lysis buffer of the kit (0.1% NP-40); streptavidin resin, then calmodulin resin; gel cut into high and low molecular weight fragments; no MS of the control sample.
The target is the same in test [2]. Description: affinity purification with mass spectrometry; TAP-Kv4.2 expressed by lentivirus in rat hippocampal neurons, harvested at DIV14; strong lysis buffer (1% Triton X-100, 0.5% deoxycholate in PBS, pH 7.4); streptavidin resin, then calmodulin resin; gel cut into high and low molecular weight fragments; no MS of the control sample.

B1: Lppr4 (protein, UniProt Q7TMB7 1-766)
chain: MQRAGSSGARGECDISGTGRLRLEQAARLGGRAVHTSPTGGLGARQVAGMSAKERPKGKVIKDSVTLLPCFYFVELPILASSVVSLYFLELTDVFKPVHSGFSCYDRSLSMPYIEPTQEAIPFLMLLSLAFAGPAITIMVGEGILYCCLSKRRNGAGLEPNINAGGCNFNSFLRRAVRFVGVHVVGLCSTALITDIIQLATGYQAPYFLTVCKPMYTSLEGSCKENSYIVEEICSGSDLTVINNGKKSFPSQHATLAAFAAVYVSMYFNSTLTDSSKLLKPLLVFTFIICGIICGLTRITQYKNHPVDVYCGFLIGGGIALYLGLYAVGNFLPSEDSMLQHRDALRSLTDLNQDPSRVLSAKNGSSGDGIAHTEGILNRNHRDASSLTNLKRANADVEIITPRSPMGKESMVTFSNTLPRANTPSVEDPVRRNASIHASMDSARSKQLLTQWKSKNESRKMSLQVMDSEPEGQSPPRSIEMRSSSEPSRVGVNGDHHVPGNQYLKIQPGTVPGCNNSMPAGPRVSIQSRPGSSQLVHIPEETQENISTSPKSSSARAKWLKAAEKTVACNRGNNQPRIMQVIAMSKQQGVLQSSPKNAEGSTVTCTGSIRYKTLTDHEPSGIVRVEAHPENNRPIIQIPSSTEGEGSGSWKWKAPEKSSLRQTYELNDLNRDSESCESLKDSFGSGDRKRKHIDSNEHHHHGITTIRVTPVEGSEIGSETLSVSSSRDSTLRRKGNIILIPERSNSPENTRNIFYKGTSPTRPYKD
In the case of B1, the binding result with TAP-Kv4.2 (human) [1] and with TAP-Kv4.2 (human) [2] was “binds” throughout.
